## Melanoma cell counts after drug treatment

Drug key:
VX-702: NC(=O)c1ccc(N(C(N)=O)c2c(F)cccc2F)nc1-c1ccc(F)cc1F at 0.4 µM
lapatinib: CS(=O)(=O)CCNCc1ccc(-c2ccc3ncnc(Nc4ccc(OCc5cccc(F)c5)c(Cl)c4)c3c2)o1 at 0.8 µM
vorinostat: O=C(CCCCCCC(=O)Nc1ccccc1)NO at 0.08 µM
erlotinib: C#Cc1cccc(Nc2ncnc3cc(OCCOC)c(OCCOC)cc23)c1 at 0.8 µM
ZM336372: Cc1ccc(NC(=O)c2cccc(N(C)C)c2)cc1NC(=O)c1ccc(O)cc1 at 2 µM
CP-690550: C[C@@H]1CCN(C(=O)CC#N)C[C@@H]1N(C)c1ncnc2[nH]ccc12 at 1 µM
SNS-032: CC(C)(C)c1cnc(CSc2cnc(NC(=O)C3CCNCC3)s2)o1 at 0.01 µM
tozasertib: Cc1cc(Nc2cc(N3CCN(C)CC3)nc(Sc3ccc(NC(=O)C4CC4)cc3)n2)n[nH]1 at 0.006 µM
nilutamide: CC1(C)NC(=O)N(c2ccc([N+](=O)[O-])c(C(F)(F)F)c2)C1=O at 1 µM
ruxolitinib: N#CC[C@H](C1CCCC1)n1cc(-c2ncnc3[nH]ccc23)cn1 at 1 µM

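Human melanoma cells were exposed to a pair of drugs for 72 h in 1,536-well plates and read by automated microscopy after fixing and staining. The read-out is cell count (nuclei) in % of the DMSO control; lower values mean stronger growth inhibition or killing. Concentrations were fixed for each drug; these are the lower of two levels, a fifth of the higher. These are primary screening values without error estimates.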
An unselected part of the screen is shown.
A dash means that no value is listed here.

| # | Pair | C32 | A101D | A2058 | COLO 792 | A375 |
|---|---|---|---|---|---|---|
| 1 | SNS-032 + tozasertib | 91.0 | 113 | 87.3 | - | 89.3 |
| 2 | ZM336372 + VX-702 | 89.3 | 92.0 | 95.4 | - | 93.7 |
| 3 | ruxolitinib + CP-690550 | 91.4 | 120 | 95.7 | - | - |
| 4 | nilutamide + CP-690550 | 70.3 | 94.3 | 93.2 | - | 93.7 |
| 5 | CP-690550 + lapatinib | 97.5 | 95.3 | 99.2 | - | 96.4 |
| 6 | nilutamide + lapatinib | 113 | 94.8 | 98.9 | - | 115 |
| 7 | tozasertib + VX-702 | 87.1 | 94.6 | 83.7 | - | 87.7 |
| 8 | erlotinib + SNS-032 | 109 | 98.1 | 112 | - | 99.9 |
| 9 | lapatinib + erlotinib | 89.1 | 91.8 | 106 | 91.8 | 99.8 |
| 10 | vorinostat + ruxolitinib | - | 112 | 95.5 | - | 109 |
| 11 | ZM336372 + erlotinib | 99.8 | 89.1 | 99.8 | - | 98.3 |
| 12 | VX-702 + nilutamide | 98.2 | 111 | 104 | - | 92.5 |
| 13 | tozasertib + ZM336372 | 98.5 | 98.7 | 87.4 | - | 102 |
| 14 | ZM336372 + vorinostat | 101 | 85.1 | 95.8 | - | 123 |
| 15 | ZM336372 + lapatinib | 79.3 | 85.5 | 103 | - | 81.5 |
| 16 | erlotinib + vorinostat | 87.5 | 90.2 | 81.8 | - | 113 |
| 17 | erlotinib + CP-690550 | 113 | 87.5 | 97.2 | - | 77.8 |
| 18 | erlotinib + ruxolitinib | 101 | 104 | 90.9 | - | 84.0 |
| 19 | nilutamide + erlotinib | 104 | 91.4 | 94.3 | - | 84.5 |
| 20 | tozasertib + nilutamide | 95.3 | 94.2 | 105 | - | 98.8 |
| 21 | VX-702 + vorinostat | 107 | 103 | 79.5 | - | 113 |
| 22 | CP-690550 + tozasertib | 92.3 | 95.1 | 87.9 | - | 94.3 |
| 23 | CP-690550 + vorinostat | 110 | 101 | 91.9 | - | 93.5 |
| 24 | CP-690550 + SNS-032 | 111 | 98.8 | 89.1 | - | 93.7 |
| 25 | vorinostat + SNS-032 | 98.8 | 91.8 | 100 | - | 96.1 |
| 26 | tozasertib + ruxolitinib | 119 | 100 | 94.7 | - | 103 |
| 27 | ruxolitinib + nilutamide | 85.3 | 99.6 | 87.9 | - | - |
| 28 | lapatinib + SNS-032 | 99.0 | 83.0 | 114 | - | 89.8 |
| 29 | SNS-032 + ruxolitinib | 101 | 115 | 87.2 | - | 114 |

3 of the entries, repeated:

| Pair | C32 | A101D | A2058 | COLO 792 | A375 |
|---|---|---|---|---|---|
| ZM336372 + erlotinib | 99.8 | 89.1 | 99.8 | - | 98.3 |
| erlotinib + CP-690550 | 113 | 87.5 | 97.2 | - | 77.8 |
| CP-690550 + vorinostat | 110 | 101 | 91.9 | - | 93.5 |

Data from the primary screen of doi:10.1371/journal.pone.0140310, rounded.